# This is one part of the list.
# Sequences of proteins named here, by UniProt entry; tags and fusion partners are left off.
# UniProt Q0JBA9, entry or part of it: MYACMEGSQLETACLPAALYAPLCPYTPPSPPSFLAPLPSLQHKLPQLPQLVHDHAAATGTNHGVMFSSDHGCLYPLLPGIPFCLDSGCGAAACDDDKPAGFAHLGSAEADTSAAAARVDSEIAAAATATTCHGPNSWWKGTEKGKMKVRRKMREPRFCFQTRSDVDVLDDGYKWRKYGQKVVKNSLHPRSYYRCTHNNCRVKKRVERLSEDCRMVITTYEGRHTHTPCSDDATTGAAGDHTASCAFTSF
# Molecular target: OsWRKY34 (Oryza sativa, UniProt Q0JBA9 1-250)
# Assay: protein-binding microarray (RPBM); PBS, 2% BSA, 51.3 ng/ul salmon testes DNA, 50 uM zinc acetate, 200 nM TF, 25 C, 1 h; high values mean tight binding
# Settings: protein: recombinant; tags: N-terminal polyhistidine and DsRed monomer fusion (pET32a); label: CyDye5-dUTP incorporated in the synthesized complementary strand; 3' TTTTT single-stranded linker to array surface; dsDNA, one strand shown
# Outline: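 Transcription factors were made in E. coli BL21-CodonPlus as N-terminal fusions to a polyhistidine tag and DsRed, then purified on Ni–NTA. After primer extension with Cy5-dUTP and blocking with 2% BSA, a custom Agilent array was exposed for 1 h at 25 °C to 200 nM protein in PBS, 2% BSA, salmon testes DNA and 50 µM zinc acetate. Washed arrays were scanned on an Axon 4000B, and the binding signal is per-feature fluorescence intensity in arbitrary units.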
row,Sequence,binding signal
1,GCCGTGTCCGTTGCCGTGTTGCGTCCCACCCGTCACTCTACGGAGTCACCTAGTGCAG,8200 fluorescence intensity (a.u.)
2,CAAAGCACACTTCCGTTTCCGCTTTCCCTAGCGTTTGTTTCGGAGTCACCTAGTGCAG,9810 fluorescence intensity (a.u.)
3,TTTTTCTCTTTTCCTTCTCTCTCTTGGGCGACTATTTAACCGGAGTCACCTAGTGCAG,8500 fluorescence intensity (a.u.)
4,GTCTGGATCAGAGCTGTCCACATTGGTTGTATTCCTCTTTCGGAGTCACCTAGTGCAG,8300 fluorescence intensity (a.u.)
5,CAGAGGTCAGTAACTCTTTCCTGCTTTCTACACTTGTTCCCGGAGTCACCTAGTGCAG,9420 fluorescence intensity (a.u.)
6,CTCTCTCTCTCTCTCTCTCTACGACTCCCACCTCCACCTCCGGAGTCACCTAGTGCAG,8810 fluorescence intensity (a.u.)
7,CTCCCTATATGTATACTCTAGTTTAATTAGTTTGTTGAGACGGAGTCACCTAGTGCAG,8190 fluorescence intensity (a.u.)
8,AGGTAGGGTTTGCCTTTTCATTTTCCAAAACCGATGACTTCGGAGTCACCTAGTGCAG,8450 fluorescence intensity (a.u.)
9,TTTCCTCTAAAGTTCGTCGCGTCTTCTCTGTTCTTCTTCACGGAGTCACCTAGTGCAG,13100 fluorescence intensity (a.u.)
10,TCTTCTGCTTCCTCTACATCTCCATCGGCCTCGCCGCCTACGGAGTCACCTAGTGCAG,8960 fluorescence intensity (a.u.)
11,TGAGTTCAATTTTTCTATGGTTGGTTCTTGTGTGTCCCTACGGAGTCACCTAGTGCAG,9270 fluorescence intensity (a.u.)
12,TCGAACGTGTCCGGAATTTTATCGTTTCTGAAGGTTTTTTCGGAGTCACCTAGTGCAG,9910 fluorescence intensity (a.u.)
13,CACACGATTGAGTGACCAGATTACTCATTACACGTTCAATCGGAGTCACCTAGTGCAG,8580 fluorescence intensity (a.u.)
14,GAGGGGCGCGTTTTATCCGATTTTGCGGTTTAGGGACGAACGGAGTCACCTAGTGCAG,10800 fluorescence intensity (a.u.)
15,ATTGGTTGTGCGTCGTCTTGTGTGTCTCTTTCACAGCGACCGGAGTCACCTAGTGCAG,11600 fluorescence intensity (a.u.)
16,TGGGATGGTTGACGGGAAGGAAGGAAAGGGGAAAAGAAGGCGGAGTCACCTAGTGCAG,8280 fluorescence intensity (a.u.)
17,ACGCAACCGATCAGTCTCGCTTCTCGCCTCGTCTCGTCTCCGGAGTCACCTAGTGCAG,12100 fluorescence intensity (a.u.)
18,GGTTATATACGGTTGGGAGAGGAGAGCTGACTTGGCGGGGCGGAGTCACCTAGTGCAG,10000 fluorescence intensity (a.u.)
19,GAGATCCTACTTCTTTGAGCCTCTTGCTTTCAATGTTCTGCGGAGTCACCTAGTGCAG,8910 fluorescence intensity (a.u.)
20,TGGCGGCGTGGAGCCGCGAGGGCGGTGGCGGCGGGGAGTTCGGAGTCACCTAGTGCAG,10400 fluorescence intensity (a.u.)
21,ACAGATGATTCTTGCGCTTTTGATTTTCCCTACGCTTTTTCGGAGTCACCTAGTGCAG,9710 fluorescence intensity (a.u.)

row,Sequence,binding signal
1,ATCTATCACCCACTAACCACTCATCTCTCATTTTTTCTTTCGGAGTCACCTAGTGCAG,12600 fluorescence intensity (a.u.)
2,GATCTCCGCCGACGTCCCCATCCTCCACTCGGAGAACCTCCGGAGTCACCTAGTGCAG,11000 fluorescence intensity (a.u.)
3,TCCCACGCTTCCGCTTCCGCATCAGACAAACCTCTCACTACGGAGTCACCTAGTGCAG,10500 fluorescence intensity (a.u.)
4,ATGAATGCCGTTCTTGCTTTATCCAGTACATGTAAACATTCGGAGTCACCTAGTGCAG,8850 fluorescence intensity (a.u.)
5,CGGTTCGATGGCTGGTCTAGTCTCAATAACTATGATTCAACGGAGTCACCTAGTGCAG,9090 fluorescence intensity (a.u.)
6,ACAGTTTCTCTTGCTCTCTTTTTTTCCTTTTCATTCTTTCCGGAGTCACCTAGTGCAG,13400 fluorescence intensity (a.u.)
7,AAGATTCAGCAGCATTTTGGCCATTGACCCTTACCCTTCACGGAGTCACCTAGTGCAG,10100 fluorescence intensity (a.u.)
8,CCTTTAATTATCAATTGTTTTACTTTGCTCTAATACACTTCGGAGTCACCTAGTGCAG,10200 fluorescence intensity (a.u.)
9,GTCCATTCCCGTGGGTACAGCTCGTGGGTTCTTCCCGATTCGGAGTCACCTAGTGCAG,8540 fluorescence intensity (a.u.)
10,CTTGGGCATATATATGGAGTATATATTTATCATCAATTCCCGGAGTCACCTAGTGCAG,8720 fluorescence intensity (a.u.)
11,TCATTGTGTTTGATTTCCCTTATGTCTACACCAAAAAGCACGGAGTCACCTAGTGCAG,8230 fluorescence intensity (a.u.)
12,TGTATGATGCCTTTAACTTTTTAACCAACGTTTAATGTTTCGGAGTCACCTAGTGCAG,9010 fluorescence intensity (a.u.)
13,CATCATCCATCCATCCATCCACCGATTTATCACTCAGACACGGAGTCACCTAGTGCAG,8410 fluorescence intensity (a.u.)
14,TCTTCTCTTTCTCTCTTTCTTTGTGATCCGTGCAGAAGAACGGAGTCACCTAGTGCAG,8960 fluorescence intensity (a.u.)
15,CATCGCGGTCACTCGTTTTCATCTCGTGGGACGGGTATATCGGAGTCACCTAGTGCAG,8320 fluorescence intensity (a.u.)
16,AGTCGCTCTCCTTCTCTCCAAACCGACCTCCGCGACCTATCGGAGTCACCTAGTGCAG,8640 fluorescence intensity (a.u.)
17,CAGCTTTCTCAACTCCTTTTCACACATCAAGTTCAATTGCCGGAGTCACCTAGTGCAG,10700 fluorescence intensity (a.u.)
18,GCGTTTACCTGATCGCTCTTCAGTTTTGAACCACAGAATTCGGAGTCACCTAGTGCAG,8960 fluorescence intensity (a.u.)
19,TCGCGTAGGCAGAGCCGGTCGAGTCTTGTGCTTGCTTCTCCGGAGTCACCTAGTGCAG,8650 fluorescence intensity (a.u.)
20,ACCGAACCACACAACAACCGTCGCGGAACCACCACATCATCGGAGTCACCTAGTGCAG,8330 fluorescence intensity (a.u.)
21,GCTATTTTTAGTTTTACATGGCCGCTCTCACTTCAATCCTCGGAGTCACCTAGTGCAG,12700 fluorescence intensity (a.u.)

# Another view of some results above.
row	Sequence	binding signal
19	GAGATCCTACTTCTTTGAGCCTCTTGCTTTCAATGTTCTGCGGAGTCACCTAGTGCAG	8910 fluorescence intensity (a.u.)
20	TGGCGGCGTGGAGCCGCGAGGGCGGTGGCGGCGGGGAGTTCGGAGTCACCTAGTGCAG	10400 fluorescence intensity (a.u.)
21	ACAGATGATTCTTGCGCTTTTGATTTTCCCTACGCTTTTTCGGAGTCACCTAGTGCAG	9710 fluorescence intensity (a.u.)
1	ATCTATCACCCACTAACCACTCATCTCTCATTTTTTCTTTCGGAGTCACCTAGTGCAG	12600 fluorescence intensity (a.u.)
2	GATCTCCGCCGACGTCCCCATCCTCCACTCGGAGAACCTCCGGAGTCACCTAGTGCAG	11000 fluorescence intensity (a.u.)
3	TCCCACGCTTCCGCTTCCGCATCAGACAAACCTCTCACTACGGAGTCACCTAGTGCAG	10500 fluorescence intensity (a.u.)
4	ATGAATGCCGTTCTTGCTTTATCCAGTACATGTAAACATTCGGAGTCACCTAGTGCAG	8850 fluorescence intensity (a.u.)
5	CGGTTCGATGGCTGGTCTAGTCTCAATAACTATGATTCAACGGAGTCACCTAGTGCAG	9090 fluorescence intensity (a.u.)
6	ACAGTTTCTCTTGCTCTCTTTTTTTCCTTTTCATTCTTTCCGGAGTCACCTAGTGCAG	13400 fluorescence intensity (a.u.)

# Source: PMC7819943, “Rice protein-binding microarrays: a tool to detect cis-acting elements near promoter regions in rice”
